Results taken from paper PMC7491320.
Results are given in words; binding and its absence hold for the method and conditions named.

By UniProt entry, the sequences of proteins in these tests, tags left out. Where a name states a change or a piece, a line headed by the entry shows the natural chain unless it says otherwise.
UniProt P87173: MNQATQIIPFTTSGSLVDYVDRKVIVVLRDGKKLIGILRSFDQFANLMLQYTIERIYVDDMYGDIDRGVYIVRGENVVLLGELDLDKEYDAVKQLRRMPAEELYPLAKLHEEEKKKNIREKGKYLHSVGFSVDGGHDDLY
UniProt O42958: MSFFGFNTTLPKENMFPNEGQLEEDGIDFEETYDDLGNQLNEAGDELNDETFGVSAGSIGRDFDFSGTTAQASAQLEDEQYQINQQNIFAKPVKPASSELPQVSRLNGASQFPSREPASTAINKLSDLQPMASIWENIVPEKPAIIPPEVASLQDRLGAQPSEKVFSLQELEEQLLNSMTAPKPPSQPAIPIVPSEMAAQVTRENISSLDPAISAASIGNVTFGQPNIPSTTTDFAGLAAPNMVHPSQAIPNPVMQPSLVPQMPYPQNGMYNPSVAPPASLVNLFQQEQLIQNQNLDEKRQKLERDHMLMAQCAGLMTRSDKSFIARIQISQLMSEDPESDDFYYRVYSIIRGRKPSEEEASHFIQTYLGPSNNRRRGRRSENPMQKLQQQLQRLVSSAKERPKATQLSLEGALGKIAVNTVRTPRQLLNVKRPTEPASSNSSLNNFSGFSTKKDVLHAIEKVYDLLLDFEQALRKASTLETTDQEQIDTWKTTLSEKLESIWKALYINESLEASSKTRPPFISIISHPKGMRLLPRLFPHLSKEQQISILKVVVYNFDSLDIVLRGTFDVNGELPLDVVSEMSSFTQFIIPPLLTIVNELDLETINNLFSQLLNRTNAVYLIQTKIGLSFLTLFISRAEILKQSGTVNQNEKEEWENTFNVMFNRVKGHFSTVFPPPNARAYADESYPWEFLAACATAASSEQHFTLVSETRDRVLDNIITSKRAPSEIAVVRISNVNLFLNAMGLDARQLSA

How the values were obtained:
[1] = molecular target: Lsm1–7 complex (S. pombe) (UniProt P87173); experiment: SEC-MALS; 20.6 µM PatMC/Lsm1–7 or Lsm1–7 with stoichiometric U15 RNA; KW-804 column; both purified
[2] = molecular target: PatMC/Lsm1–7 complex (S. pombe) (UniProt O42958); experiment: condition: only preparative size exclusion in 400 mM NaCl, before concentration; SEC; preparative size exclusion chromatography (Superdex 200 16/60) of PatMC/Lsm1–7 in 400 mM NaCl, 20 mM HEPES 7.0, 1 mM DTT, without RNA, before concentration; both purified

Row | binding [1] | binding [2] | Substance
1 | no binding (tested: 20.6 µM) |  | Lsm1–7 complex (from UniProt P87173 1-140; O94408 1-96; Q9Y7M4 1-93; O14352 1-121; O42978 1-80; Q9UUI1 1-75; O74499 1-113)
2 |  | no binding | PatMC/Lsm1–7 complex (from UniProt O42958 296-754; P87173 1-140; O94408 1-96; Q9Y7M4 1-93; O14352 1-121; O42978 1-80; Q9UUI1 1-75; O74499 1-113)
